Results from patent US20050048539A1, “Methods to monitor molecule conformation and molecule/molecule proximity” (The General Hospital Corporation, priority 2003, published 2005).

test: Autofluorescence and direct effect of NSAIDs on FITC lifetime; conditions: 375 μM S-ibuprofen; 150 μM indomethacin; 400 μM naproxen; 1 mM aspirin

**Q.** For `COc1ccc2cc([C@H](C)C(=O)O)ccc2c1` [naproxen], which “FITC lifetime in the presence of NSAID” value is on record?
**A.** The value was 2381±38 psec.

**Q.** With `COc1ccc2c(c1)c(CC(=O)O)c(C)n2C(=O)c1ccc(Cl)cc1` [indomethacin] as the molecule, how does the “FITC lifetime in the presence of NSAID” value read?
**A.** Its value is 2367±9 psec.

**Q.** With `CC(C)Cc1ccc([C@H](C)C(=O)O)cc1` [S-ibuprofen, (S)-ibuprofen] as the molecule, how does the “FITC lifetime in the presence of NSAID” value read?
**A.** Its value is 2372±23 psec.

**Q.** For `CC(=O)Oc1ccccc1C(=O)O` [aspirin], which “FITC lifetime in the presence of NSAID” value is on record?
**A.** The value was 2360±26 psec.
